Drawing on PubChem BioAssay AID1487 (National Center for Advancing Translational Sciences (NCATS), 2009), this text covers AC50 for 34 molecules.

For orientation: AC50 means the midpoint of the concentration-response curve, whichever way the signal moves.

The test can be described thus: qHTS Assay for Modulators of Lamin A Splicing. The following applies: HeLa LMNA splicing GFP/RFP minigene ratio, 48 h. The method, boiled down:
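S3 HeLa cells stably expressing lamin A-EGFP splicing minigene plus DsRed2, 600 cells/well, 48 h compound exposure at 37C. Laser-scanning cytometry; analysed as GFP (500-530 nm)/RFP (575-640 nm) total intensity ratio; 0.5% DMSO vehicle.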
On the technique in general: In qHTS, concentration-response curves come from the screen itself.

Where [1] appears, read: measured here: GFP splicing reporter channel.
Setting [2] is: measured here: RFP viability control channel.

Molecules are shown by their SMILES. Values joined by “and” are separate entries in the source; they are usually repeats but may differ in a detail not shown here. Identical values can stand only once. The list shows a part of the results. The main result of the screen is listed elsewhere. These columns were measured beside it and carry no call. Compounds called inactive in the main read-out are mostly missing here. The note in brackets gives the kind of curve behind each potency; many fits are weak.

Take `Clc1ccc(Cl)cc1`: the AC50 by setting is: under setting [1], 3.98 µM [falling, partial curve, poor fit]; under setting [2], 35.5 µM [falling, single point].
`Cc1cccc(CN2C(=O)CN=C(c3ccccc3Cl)c3cc(Cl)ccc32)c1`: the AC50 under setting [2] was 35.5 µM [rising, single point].
In the case of `COc1cc2c(c(OC)c1OC)-c1ccc(O)c(=O)cc1C(NC(C)=O)CC2` (configuration not stated), the AC50 is, setting by setting: under setting [1], 0.794 µM [falling, full curve]; under setting [2], 0.891 µM [falling, full curve].
Consider `Cn1ccc(NC(=O)CCl)n1`, for which the AC50 under setting [2] was 14.1 µM [falling, partial curve].
Regarding `COc1ccc(C(=O)CC2(CC(=O)c3ccc(OC)cc3)C(=O)N(C)C(=O)N(C)C2=O)cc1`, the half-maximal activity concentration (AC50) under setting [1] is 20 µM [rising, single point].
As to `Cc1cc(OC(=O)CCNC(=O)OC(C)(C)C)c2c3c(c(=O)oc2c1)CCC3`, the half-maximal activity concentration (AC50) is, setting by setting: under setting [1], 35.5 µM [rising, single point]; under setting [2], 35.5 µM [rising, single point].
In the case of `C[C@]12CC[C@H]3[C@@H](CCC4=CC(=O)CC[C@@]43C)[C@@H]1CC[C@@H]2C(=O)CO`, the AC50 under setting [1] was 12.6 µM [rising, single point].
For the molecule `O=c1[nH]oc2c1CCNC2`, the AC50 under setting [1] was 11.2 µM [rising, partial curve, poor fit].
Turning to `O=C(O)CCCCC1SCC2NC(=O)NC21` (configuration not stated), the AC50 under setting [2] was 0.01 µM [rising, full curve].
For the molecule `C[C@@]12CC[C@H](O)C[C@@H]1CC[C@H]1[C@H]2CC[C@@]2(C)[C@@H](C3=CC(=O)OC3)CC[C@]12O`, the concentration at half-maximal activity (AC50) is 2.24 µM [falling, partial curve] under setting [1] and 0.0178 µM [falling, full curve] under setting [2].
Regarding `CC(=NCCC(c1ccccc1)c1ccccc1)c1c(O)n(C)c(=O)n(C)c1=O`, under setting [2], the concentration at half-maximal activity (AC50) is 28.2 µM [rising, partial curve].
Consider `O=C(CCCN1CCC2(CC1)C(=O)NCN2c1ccccc1)c1ccc(F)cc1`, for which the AC50 by setting is: under setting [1], 12.6 µM [rising, partial curve, poor fit] and 17.8 µM [rising, partial curve, poor fit] and 6.31 µM [falling, partial curve]; under setting [2], 22.4 µM [rising, single point] and 35.5 µM [rising, single point].
As for `O=C1/C(=C/c2ccc([N+](=O)[O-])cc2)N2CCC1CC2`, under setting [2], the AC50 was 15.8 µM [rising, single point].
As for `COC[C@H]1OC(=O)c2coc3c2[C@@]1(C)C1=C(C3=O)C2CCC(=O)[C@@]2(C)C[C@H]1OC(C)=O` (some centres not stated), the AC50 reads like this: under setting [1], 15.8 µM [falling, partial curve]; under setting [2], 11.2 µM [falling, partial curve].
On to `CC(=NC(C)c1ccccc1)c1c(O)[nH]c(=O)[nH]c1=O` (configuration not stated), for which the AC50 under setting [2] was 0.794 µM [falling, full curve, poor fit].
Still for that read-out and setting: the result for `CC1CCCCN1C(=O)c1ccc(N2CC3CC(C2)c2cccc(=O)n2C3)c([N+](=O)[O-])c1` (configuration not stated) reads 20 µM [rising, single point].
For the molecule `Cc1nc2ccccc2c(=O)n1-c1ccc(Br)cc1[N+](=O)[O-]`, the concentration at half-maximal activity (AC50) by setting is: under setting [1], 0.794 µM [falling, full curve, poor fit]; under setting [2], 0.708 µM [falling, single point].
As for `O=C(Nc1cccnc1)c1c(O)c2c(n(Cc3ccccc3)c1=O)CCCC2`, under setting [2], the AC50 was 15.8 µM [rising, single point].
On the same count and under the same terms, the result for `CCn1c(CNC(=O)c2ccc3c(c2)OCO3)nnc1SCC(=O)Nc1cc(C)ccc1OC` reads 20 µM [rising, single point].
As for `N#CCCn1cc(C(=O)NCc2ccccc2)c(-c2ccc3c(c2)OCCO3)n1`, the half-maximal activity concentration (AC50) by setting is: under setting [1], 0.251 µM [rising, full curve, poor fit]; under setting [2], 0.316 µM [rising, full curve].
As for `CC(C)Oc1cccnc1N(C)C1CCN(Cc2ccccc2)CC1`, the AC50 under setting [1] was 3.55 µM [rising, single point] and the half-maximal activity concentration (AC50) under setting [2] was 1.12 µM [rising, single point].
In the case of `CC1CCC(C(C)C)C(OP(=O)(c2ccc(N(C)C)cc2)C(O)c2cccnc2)C1` (configuration not stated), the AC50 was 31.6 µM [rising, single point] under setting [1] and 31.6 µM [rising, single point] under setting [2].
As for `O=C(COc1ccc(S(=O)(=O)N2CCCCC2)cc1)N1CCN(Cc2ccccc2)CC1`, the AC50 under setting [2] was 35.5 µM [rising, single point].
Still for that read-out and setting: the result for `CCOC(=O)Cn1c(=O)oc2cc(S(=O)(=O)N3CCN(C(=O)c4ccco4)CC3)ccc21` reads 17.8 µM [rising, single point].
Turning to `C[C@H](N)[C@@H](O)c1ccccc1`, the AC50 is, setting by setting: under setting [1], 2.51 µM [falling, partial curve, poor fit]; under setting [2], 7.94 µM [falling, partial curve, poor fit].
For `O=c1[nH]c2ccccc2c(=O)n1-c1ccc(Cl)cc1Cl`, under setting [1], the concentration at half-maximal activity (AC50) was 35.5 µM [falling, partial curve, poor fit].
For the molecule `O=c1c2ccccc2nc(/C=C/c2ccc3c(c2)OCO3)n1-c1ccccc1`, the AC50 is 2.82 µM [falling, partial curve] under setting [1] and 7.08 µM [rising, full curve, poor fit] under setting [2].
Regarding `Cc1ccc2c(c1)C1CN(C)CCC1N2C(=O)Nc1ccc(Cl)cc1` (configuration not stated), under setting [2], the AC50 was 20 µM [rising, single point].
`CN(C(=O)Oc1ccc(C(=O)c2ccc(Cl)cc2)cc1)c1ccccc1`: the AC50 under setting [2] is 22.4 µM [rising, single point].
Still for that read-out and setting: the value for `O=C(NCc1ccc2c(c1)CCN2C(=O)c1ccccc1)Nc1cccc(C(F)(F)F)c1` was 5.62 µM [rising, partial curve]; that for `COc1cc2ccc(=O)oc2c2ccoc12` was 2.51 µM [rising, single point].
Consider `NCC1(CC(=O)O)CCCCC1`, for which the AC50 reads like this: under setting [1], 0.00891 µM [falling, full curve, poor fit]; under setting [2], 14.1 µM [falling, partial curve, poor fit].
As to `O=c1c2ccccc2nc(-c2ccccc2)n1-c1ccc(O)cc1`, the half-maximal activity concentration (AC50) under setting [1] was 0.00891 µM [rising, full curve, poor fit].
Still for that read-out and setting: the result for `CCOC(=O)C1(c2ccccc2)CCN(CC(=O)Nc2ccc(C)cc2)CC1` reads 17.8 µM [falling, single point].
